{"sequences": {"note": "Sequences of proteins named here, by UniProt entry; tags and fusion partners are left off. A change or cut given only in a name is not applied to a line headed by its entry.", "UniProt P51450": "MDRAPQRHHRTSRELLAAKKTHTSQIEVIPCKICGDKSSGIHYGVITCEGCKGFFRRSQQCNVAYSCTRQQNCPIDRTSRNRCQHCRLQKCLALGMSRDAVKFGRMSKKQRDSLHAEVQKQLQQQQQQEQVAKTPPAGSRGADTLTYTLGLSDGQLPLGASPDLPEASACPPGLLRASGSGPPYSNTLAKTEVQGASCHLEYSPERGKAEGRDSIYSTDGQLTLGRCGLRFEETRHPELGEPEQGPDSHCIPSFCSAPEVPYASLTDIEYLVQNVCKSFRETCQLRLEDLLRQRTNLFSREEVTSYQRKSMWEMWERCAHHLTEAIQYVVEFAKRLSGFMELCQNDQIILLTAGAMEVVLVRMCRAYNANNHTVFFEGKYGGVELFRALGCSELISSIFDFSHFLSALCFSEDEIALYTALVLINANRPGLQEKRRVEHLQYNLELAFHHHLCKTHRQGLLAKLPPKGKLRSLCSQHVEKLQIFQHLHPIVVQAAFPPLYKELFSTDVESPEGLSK"}, "source": "PubChem BioAssay AID2551", "about": "(National Center for Advancing Translational Sciences (NCATS), 2010)", "note": "The campaign covered roughly 310,000 compounds. About 17,000 (5.5%) were called active. Inconclusive results, whose numbers are uncertain, are shown with a selection of clear calls. The call rests on the fitted dose curve; in most records, active means well fitted inhibition curve with a large enough effect; inconclusive means small, poorly fitted or top-dose-only effect, or effect the other way; inactive means no such curve, though single readings can be large or run the other way. Potencies of inconclusive entries are doubtful fits and often do not repeat. On the % scale 0 is the no-effect control and ±100 the full control effect; potency means the concentration at half of the fitted maximal effect."}
{"target": "Nuclear receptor ROR-gamma (Mus musculus) (UniProt P51450)", "assay": "qHTS for inhibitors of ROR gamma transcriptional activity; further: nearly all actives have a fitted effect of over 60% in size", "settings": "Drosophila S2 Gal4-RORgamma UAS-luciferase reporter, 20 h; activity change, negative = inhibition: at 53.6 µM (top of the series)", "outline": "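Drosophila S2 cells stably expressing Gal4-DBD/mouse RORγ fusion under metallothionein promoter plus UAS-luciferase; compound 1 h, then 700 uM CuSO4 induction for 20 h at ambient temperature; inhibition read as reduced luminescence.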"}
{"smiles": "Cc1cc2c(cc1Cl)C(c1ccccc1C)CC(=O)O2", "note": "(stereo not drawn)", "activity change, negative = inhibition": "inactive: -39%"}
{"smiles": "Cc1cc([N+](=O)[O-])nn1CC(=O)c1ccccc1", "Potency": "inconclusive: 2.24 µM [activator, full curve]"}
{"smiles": "C#CC(=O)N(c1cc(OC)ccc1OC)C(C(=O)NC1CCCC1)c1cccs1", "note": "(stereo not drawn)", "Potency": "active: 4.47 µM"}
{"smiles": "Cc1ccc(C)c(S(=O)(=O)N2CCN(C(=O)c3ccnn3C)CC2)c1", "Potency": "inconclusive: 5.01 µM [activator, single point]"}
{"smiles": "O=C(NN=C1CCCCCC1)c1cccnc1", "Potency": "inconclusive: 12.6 µM [inhibitor, single point]"}
{"smiles": "COc1ccc(CNc2ccc(S(N)(=O)=O)cc2)c(OC)c1OC", "Potency": "inconclusive: 17.8 µM [inhibitor, single point]"}
{"smiles": "NNC(=O)CSc1cccc2cccnc12", "activity change, negative = inhibition": "inactive: 23.2%"}
{"smiles": "S=c1[nH]nc(-c2ccncc2)n1/N=C/C(Cl)=C\\c1ccccc1", "Potency": "inconclusive: 2.82 µM [inhibitor, full curve]"}
{"smiles": "Cc1cc(C)nc(SCc2ccc(C(=O)N/N=C/c3ccccn3)cc2)n1", "Potency": "active: 7.08 µM"}
{"smiles": "COc1cccc(NC(=O)c2sc3ncn(CC(=O)N4CCN(c5ccccn5)CC4)c(=O)c3c2C)c1", "activity change, negative = inhibition": "inactive: 45%"}
{"smiles": "Nc1cc2c(cc1O)CCCC2", "Potency": "inconclusive: 1.12 µM [inhibitor, partial curve]"}
{"smiles": "Oc1ccccc1C1NN=C(c2ccccc2)S1", "note": "(stereo not drawn)", "Potency": "inconclusive: 12.6 µM [inhibitor, partial curve, poor fit]"}
{"smiles": "O=C(Nc1cccnc1)c1ccc(Cl)c(S(=O)(=O)N2CCCCC2)c1", "Potency": "inconclusive: 10 µM [activator, partial curve]"}
{"smiles": "S=c1[nH]nc(C2CCCCC2)o1", "Potency": "inconclusive: 20 µM [inhibitor, single point]"}
{"smiles": "Cc1oc(/N=C/c2c(O)ccc3ccccc23)c(C#N)c1C", "Potency": "inconclusive: 12.6 µM [inhibitor, partial curve]"}
{"smiles": "COc1ccc(-c2nc(C)sc2CC(=O)O)cc1", "Potency": "inconclusive: 5.62 µM [activator, single point]"}
{"smiles": "Cc1ccc(Cn2ncc3c(NCCN(C)C)ncnc32)cc1", "activity change, negative = inhibition": "inactive: -0.0179%"}
{"smiles": "CCOc1ccccc1NC(=O)C(OC(=O)C1CC1)c1ccccc1", "note": "(stereo not drawn)", "activity change, negative = inhibition": "inactive: 18.1%"}
{"smiles": "COc1ccc(-n2c(C)cc(/C=C3\\C(=N)N4N=C(CC(=O)N5CCOCC5)SC4=NC3=O)c2C)cc1", "activity change, negative = inhibition": "inactive: -5.41%"}
{"smiles": "Cc1ccc(NC(=S)c2nc3ccccc3[nH]2)c(C)c1", "Potency": "active: 14.1 µM"}
{"smiles": "Cc1ccoc1C(=O)Nc1ccc(CC(=O)O)cc1", "Potency": "active: 0.501 µM"}
{"smiles": "C/C(=N\\Nc1nc(-c2ccc(C)cc2C)cs1)c1cc2ccccc2oc1=O", "Potency": "inconclusive: 20 µM [inhibitor, single point]"}
{"smiles": "CCOc1ccccc1CNC(=O)C1CCN(C(=O)c2sccc2-n2cccc2)CC1", "activity change, negative = inhibition": "inactive: 19.7%"}
{"smiles": "O=[N+]([O-])c1ncccc1OCc1ccc(-c2ccccc2)cc1", "Potency": "inconclusive: 15.8 µM [activator, single point]"}
{"smiles": "CCCCN(C)C(=O)c1cc2cc3ccc(OC)cc3nc2s1", "Potency": "inconclusive: 14.1 µM [inhibitor, single point]"}
{"smiles": "Cc1ccccc1C(=O)NCCSc1ccccc1", "Potency": "inconclusive: 2 µM [activator, partial curve]"}
{"smiles": "Cc1ccc(NC(=O)CCN2CCN(C)CC2)cc1", "Potency": "inconclusive: 3.55 µM [inhibitor, full curve]"}
{"smiles": "COc1ccc(Cl)cc1NC(=O)Cn1c(=O)oc2ccccc21", "activity change, negative = inhibition": "inactive: -10.6%"}
{"smiles": "O=C(/C=C/c1ccccc1)c1ccc2c(c1)OCCCCO2", "Potency": "inconclusive: 12.6 µM [inhibitor, single point]"}
{"smiles": "O=C(Nc1ncc(Cc2ccccc2Cl)s1)C1=NCCN1", "Potency": "active: 3.98 µM"}
{"smiles": "COc1cc(/C=N/NC(=O)c2c(C)nc3ccc(Cl)cn23)cc(OC)c1OC", "Potency": "inconclusive: 1.41 µM [activator, partial curve, poor fit]"}
{"smiles": "Fc1ccc(C(CNC(=S)NC2CCCCC2)N2CCOCC2)cc1", "note": "(stereo not drawn)", "Potency": "active: 8.91 µM"}
{"smiles": "CC(C)Oc1ccc(Br)cc1/C=N\\NC(N)=S", "Potency": "active: 2 µM"}
{"smiles": "CCc1nnc(NC(=S)Nc2ccccc2)s1", "Potency": "active: 0.282 µM"}
{"smiles": "CCCCOC(=O)C1CN(c2ccccc2)N=C1C(C)=O", "note": "(stereo not drawn)", "activity change, negative = inhibition": "inactive: -22.6%"}
{"smiles": "COc1ccc(NC(=S)N2CCC(c3nc4ccccc4o3)CC2)c(OC)c1", "activity change, negative = inhibition": "inactive: -17.9%"}
{"smiles": "COc1cccc(/C=N/NC(=O)c2ccccc2)c1OS(=O)(=O)c1ccccc1", "Potency": "inconclusive: 11.2 µM [activator, partial curve]"}
{"smiles": "COc1ccccc1CNC(=S)NCc1ccc(F)cc1", "Potency": "active: 7.08 µM"}
{"smiles": "COc1ccc(N2CCN(Cc3nnc(-c4ccccc4)o3)CC2)cc1", "activity change, negative = inhibition": "inactive: 2.46%"}
{"smiles": "O=C(CCSc1ccccc1)Nc1ccc(S(=O)(=O)Nc2ncccn2)cc1", "activity change, negative = inhibition": "inactive: 4.67%"}
{"smiles": "CCC(C)c1ccc(NC(=S)Nc2ccc(OC)c(OC)c2)cc1", "note": "(stereo not drawn)", "Potency": "inconclusive: 3.55 µM [inhibitor, single point]"}
{"smiles": "Cc1ccc(C)c(N(CC(=O)NN=C2CCN(C)CC2)S(=O)(=O)c2ccccc2)c1", "Potency": "inconclusive: 4.47 µM [inhibitor, full curve, poor fit]"}
{"smiles": "CCN1CCN(CCNC(=O)c2ccc(/C=C3/Sc4ccccc4N(Cc4ccccc4C)C3=O)cc2)CC1", "Potency": "inconclusive: 25.1 µM [inhibitor, single point]"}
{"smiles": "Cc1ccccc1Cn1nc(C)c(NC(=O)c2cc(-c3cccs3)on2)c1C", "Potency": "inconclusive: 17.8 µM [activator, single point]"}
{"smiles": "O=C(c1ccco1)N1CCN(C(=S)Nc2ccc(Br)cc2Cl)CC1", "activity change, negative = inhibition": "inactive: 8.59%"}
{"smiles": "CCCN(CCC)S(=O)(=O)c1ccc(C(=O)Nc2nc3c(s2)CCc2ccccc2-3)cc1", "Potency": "inconclusive: 0.631 µM [activator, single point]"}
{"smiles": "O=C(Nc1cccnc1)c1cc(S(=O)(=O)N2CCOCC2)ccc1Br", "Potency": "inconclusive: 0.126 µM [activator, full curve, poor fit]"}
{"smiles": "CCNc1sc(C(=O)c2cccs2)c(N)c1-c1nc2ccccc2s1", "Potency": "inconclusive: 1 µM [inhibitor, partial curve, poor fit]"}
{"smiles": "O=C(Nc1cc(S(=O)(=O)N2CCCCC2)ccc1Cl)c1ccccc1NS(=O)(=O)c1ccc(F)cc1", "Potency": "inconclusive: 35.5 µM [inhibitor, single point]"}
{"smiles": "O=C(NCC(=O)N(c1ccc(F)cc1)C(C(=O)NC1CCCC1)c1cccnc1)c1cccs1", "note": "(stereo not drawn)", "activity change, negative = inhibition": "inactive: 5.82%"}
{"smiles": "O=C(CC1S/C(=N/N=C2CCCCCC2)NC1=O)Nc1ccc(Br)cc1F", "note": "(stereo not drawn)", "Potency": "active: 2.24 µM"}
{"smiles": "CN1/C(=C\\C(=S)NC(=O)c2ccccc2Cl)C(C)(C)c2ccccc21", "Potency": "active: 7.94 µM"}
{"smiles": "CC(NC(=O)COC(=O)c1ccc([N+](=O)[O-])s1)c1ccccc1", "note": "(stereo not drawn)", "Potency": "active: 11.2 µM"}
{"smiles": "CCOC(=O)c1c(-c2ccc(C)o2)csc1NC(=S)NC(=O)c1ccc(F)cc1", "Potency": "active: 1.78 µM"}
{"smiles": "O=C(CO/N=C/c1ccccc1)N1c2ccccc2Oc2ccccc21", "Potency": "inconclusive: 35.5 µM [activator, single point]"}
{"smiles": "O=C(COC(=O)/C(=C/c1cccs1)c1cccs1)NCc1ccccc1Cl", "Potency": "inconclusive: 0.1 µM [activator, full curve, poor fit]"}
{"smiles": "COc1ccccc1-n1nnnc1SCC(=O)Nc1cc(C)on1", "Potency": "inconclusive: 11.2 µM [activator, single point]"}
{"smiles": "O=C(Nc1ccnn1C1CCN(CCCc2ccccc2)CC1)c1cccc(F)c1", "activity change, negative = inhibition": "inactive: -32.1%"}
{"smiles": "O=c1c2ccccc2nc(-c2ccc(Cl)cc2Cl)n1O", "Potency": "active: 10 µM"}
{"smiles": "Cn1nc(-c2ccccc2)c(C(O)c2ccc(Cl)cc2)c1Cl", "note": "(stereo not drawn)", "Potency": "inconclusive: 20 µM [activator, single point]"}
{"smiles": "CC(C)C(NC(=O)C12CC3CC(CC(C3)C1)C2)C(=O)N/N=C/C1=C(N2CCOCC2)C(=C\\c2ccc([N+](=O)[O-])cc2)/CC1", "note": "(stereo not drawn)", "activity change, negative = inhibition": "inactive: -18.9%"}
{"smiles": "CCOc1cc(/C=N/NC(=O)Cc2ccc(C(F)(F)F)cc2[N+](=O)[O-])ccc1O", "activity change, negative = inhibition": "inactive: -5.64% [at 10 µM]"}
{"smiles": "Nc1ccccc1S(=O)(=O)O", "activity change, negative = inhibition": "inactive: -9.33%"}
{"smiles": "CC(=O)/C(=N\\Nc1ccccc1Cl)Sc1nnc(-c2ccccc2)n1-c1ccccc1", "Potency": "active: 10 µM"}
{"smiles": "COc1ccc(N2CCC(CNC(=S)Nc3cccc(C)c3)C2)cc1", "note": "(stereo not drawn)", "Potency": "active: 3.98 µM"}
{"smiles": "CCOC(=O)c1cccc(NC(=O)C2CCN(c3ncnc4c3nc3n4CCCCC3)CC2)c1", "Potency": "inconclusive: 28.2 µM [activator, single point]"}
{"smiles": "Cc1ccc(Sc2ncnc(N)c2[N+](=O)[O-])cc1", "activity change, negative = inhibition": "inactive: -41.4%"}
{"smiles": "CCCc1nnc(NC(=O)CCS(=O)(=O)c2ccccc2)s1", "activity change, negative = inhibition": "inactive: 0%"}
{"smiles": "Cn1cc(/C=N/NC(=O)c2cccc([N+](=O)[O-])c2)c2ccccc21", "Potency": "active: 0.501 µM"}
{"smiles": "C=CCOC(=O)C1=C(C)NC(C)=C(C(=O)OCC=C)C1c1cccs1", "Potency": "inconclusive: 4.47 µM [activator, partial curve]"}
{"smiles": "Cc1cccc(NC(=O)CSc2nnc(NC(=O)c3ccco3)s2)c1", "activity change, negative = inhibition": "inactive: 17.4%"}
{"smiles": "O=C(N/N=C/c1cccs1)c1n[nH]c2c1CCC2", "Potency": "inconclusive: 12.6 µM [inhibitor, single point]"}
{"smiles": "O=C(O)CCC(=O)NCCn1c(-c2ccccc2)csc1=Nc1ccccc1", "activity change, negative = inhibition": "inactive: -0.427%"}
{"smiles": "Cc1ccc2cc(C#N)c(NCCNC(=O)C3CC3)nc2c1C", "Potency": "inconclusive: 12.6 µM [inhibitor, partial curve, poor fit]"}
{"smiles": "COc1ccc(Cl)cc1NC(=S)Nc1ccc(Cl)cn1", "Potency": "active: 1.26 µM"}
{"smiles": "OC(c1ccc(Cl)cc1)C(CN1CCOCC1)c1ccccc1", "note": "(stereo not drawn)", "activity change, negative = inhibition": "inactive: 3.28%"}
{"smiles": "Cc1ccc(C(=O)Nc2cccc(C(=O)O)c2)cc1S(=O)(=O)N1CCOCC1", "Potency": "inconclusive: 35.5 µM [inhibitor, single point]"}
{"smiles": "CCOC(=O)c1cnc2ccc(OC)cc2c1Nc1ccc2c(c1)OCCO2", "activity change, negative = inhibition": "inactive: 18.3%"}
